From patent US20260248087A1, “GENERATING DOUBLED HAPLOID PLANTS” (Syngenta Crop Protection AG, priority 2023, published 2026)

How the values were obtained:
diploid embryos = assay: Color expression of diploid embryos, co-treatment with benoxacor or dichlormid; assay type: in vivo, maize
isolated embryos = assay: Escape rate, thiamethoxam co-treatment during colchicine doubling; assay type: in vivo, maize; conditions: co-treatment with colchicine
embryos from maize ears = assay: Escape rate (lab and greenhouse), co-treatment with metcamifen and thiamethoxam; assay type: in vivo
[1] = TMX 4000 mg/L, 24 Hour co-treatment with colchicine
[2] = TMX 6000 mg/L, 48 Hour co-treatment with colchicine
[3] = metcamifen 800 mg/L, 24 Hour co-treatment with colchicine
[4] = metcamifen 800 mg/L, 48 Hour co-treatment with colchicine

Compound: CC1COc2ccccc2N1C(=O)C(Cl)Cl (centres unmarked) [Benoxacor, benoxacor]
- color expression (portion of diploid embryos visibly displaying purple pigment) (diploid embryos; increasing concentration of benoxacor, 48-hour co-treatment): mild decrease in color expression

Compound: C=CCN(CC=C)C(=O)C(Cl)Cl [Dichlormid, dichlormid]
- color expression (portion of diploid embryos colored purple) (diploid embryos; dichlormid concentrations greater than 100 mg/L): steep decrease in color expression

Compound: CN1COCN(Cc2cnc(Cl)s2)/C1=N\[N+](=O)[O-] [TMX, thiamethoxam]
- 24 hr Escape Rate (isolated embryos; TMX 2000 mg/L): 0%
- 48 hr Escape Rate (isolated embryos; TMX 2000 mg/L): 0%
- 24 hr Escape Rate (isolated embryos; TMX 4000 mg/L): 8%
- 48 hr Escape Rate (isolated embryos; TMX 4000 mg/L): 0%
- 24 hr Escape Rate (isolated embryos; TMX 6000 mg/L): 60%
- 48 hr Escape Rate (isolated embryos; TMX 6000 mg/L): 0%
- 24 hr Escape Rate (isolated embryos; TMX 8000 mg/L): 50%
- 48 hr Escape Rate (isolated embryos; TMX 8000 mg/L): 33%
- Genotype 1 GH Escapes (embryos from maize ears; [1]): 16%
- Genotype 1 Lab Escapes (embryos from maize ears; [1]): 3%
- Genotype 1 Total (escapes) (embryos from maize ears; [1]): 19%
- Genotype 2 GH Escapes (embryos from maize ears; [1]): 0%
- Genotype 2 Lab Escapes (embryos from maize ears; [1]): 1%
- Genotype 2 Total (escapes) (embryos from maize ears; [1]): 1%
- Genotype 1 GH Escapes (embryos from maize ears; [2]): 9%
- Genotype 1 Lab Escapes (embryos from maize ears; [2]): 9%
- Genotype 1 Total (escapes) (embryos from maize ears; [2]): 17%
- Genotype 2 GH Escapes (embryos from maize ears; [2]): 0%
- Genotype 2 Lab Escapes (embryos from maize ears; [2]): 0%
- Genotype 2 Total (escapes) (embryos from maize ears; [2]): 0%

Compound: CNC(=O)Nc1ccc(S(=O)(=O)NC(=O)c2ccccc2OC)cc1 [Metcamifen, metcamifen]
- Genotype 1 GH Escapes (embryos from maize ears; [3]): 24%
- Genotype 1 Lab Escapes (embryos from maize ears; [3]): 0%
- Genotype 1 Total (escapes) (embryos from maize ears; [3]): 24%
- Genotype 2 GH Escapes (embryos from maize ears; [3]): 0%
- Genotype 2 Lab Escapes (embryos from maize ears; [3]): 0%
- Genotype 2 Total (escapes) (embryos from maize ears; [3]): 0%
- Genotype 1 GH Escapes (embryos from maize ears; metcamifen 800 mg/L, 24 Hour co-treatment with colchicine, listed as metcamifen): 24%
- Genotype 1 GH Escapes (embryos from maize ears; [4]): 5%
- Genotype 1 Lab Escapes (embryos from maize ears; [4]): 0%
- Genotype 1 Total (escapes) (embryos from maize ears; [4]): 5%
- Genotype 2 GH Escapes (embryos from maize ears; [4]): 0%
- Genotype 2 Lab Escapes (embryos from maize ears; [4]): 0%
- Genotype 2 Total (escapes) (embryos from maize ears; [4]): 0%
